Data as given in paper PMC5366886, “Structure of the Cyanuric Acid Hydrolase TrzD Reveals Product Exit Channel” (Scientific Reports, 2017).
No constants are given. Whether binding was seen depends on the method and setting. Some binding calls cover weakened binding; strength is not graded here.

Target: TrzD, a cyanuric acid hydrolase from Acidovorax citrulli (Acidovorax citrulli) (UniProt P0A3V4)
Assay: crystal structure; crystallised with 10 mM cyanuric acid, hanging drop, 20 °C; space group I222, one monomer in the asymmetric unit; tetramer assembly analysed with PISA; both purified

B1: TrzD, a cyanuric acid hydrolase from Acidovorax citrulli (enzyme, UniProt P0A3V4 1-370, looked up)
chain: MQAQVFRVPMSNPADVSGVAKLIDEGVIRAEEVVCVLGKTEGNGCVNDFTRGYTTLAFKVYFSEKLGVSRQEVGERIAFIMSGGTEGVMAPHCTIFTVQKTDNKQKTAAEGKRLAVQQIFTREFLPEEIGRMPQVTETADAVRRAMREAGIADASDVHFVQVKCPLLTAGRMHDAVERGHTVATEDTYESMGYSRGASALGIALALGEVEKANLSDEVITADYSLYSSVASTSAGIELMNNEIIVMGNSRAWGGDLVIGHAEMKDAIDGAAVRQALRDVGCCENDLPTVDELGRVVNVFAKAEASPDGEVRNRRHTMLDDSDINSTRHARAVVNAVIASIVGDPMVYVSGGSEHQGPAGGGPVAVIARTA
notes: TrzD, cyanuric acid hydrolase of Acidovorax citrulli; full-length trzD gene in pET28b(+); 370 amino acids, ~39.5 kDa; source: E. coli BL21 (DE3), purified (Ni-NTA, Superdex-200 gel filtration); not shown: His-tag, N-terminal, kept
  binding: binds
